The list shows a part of the results. Most entries show no effect beyond the scatter of the controls.

Protein sequences, listed by entry. Tags and fused reporters are not part of them. Lines headed by an entry give the natural chain unless they say otherwise; changes in a name come on top.
UniProt P14923: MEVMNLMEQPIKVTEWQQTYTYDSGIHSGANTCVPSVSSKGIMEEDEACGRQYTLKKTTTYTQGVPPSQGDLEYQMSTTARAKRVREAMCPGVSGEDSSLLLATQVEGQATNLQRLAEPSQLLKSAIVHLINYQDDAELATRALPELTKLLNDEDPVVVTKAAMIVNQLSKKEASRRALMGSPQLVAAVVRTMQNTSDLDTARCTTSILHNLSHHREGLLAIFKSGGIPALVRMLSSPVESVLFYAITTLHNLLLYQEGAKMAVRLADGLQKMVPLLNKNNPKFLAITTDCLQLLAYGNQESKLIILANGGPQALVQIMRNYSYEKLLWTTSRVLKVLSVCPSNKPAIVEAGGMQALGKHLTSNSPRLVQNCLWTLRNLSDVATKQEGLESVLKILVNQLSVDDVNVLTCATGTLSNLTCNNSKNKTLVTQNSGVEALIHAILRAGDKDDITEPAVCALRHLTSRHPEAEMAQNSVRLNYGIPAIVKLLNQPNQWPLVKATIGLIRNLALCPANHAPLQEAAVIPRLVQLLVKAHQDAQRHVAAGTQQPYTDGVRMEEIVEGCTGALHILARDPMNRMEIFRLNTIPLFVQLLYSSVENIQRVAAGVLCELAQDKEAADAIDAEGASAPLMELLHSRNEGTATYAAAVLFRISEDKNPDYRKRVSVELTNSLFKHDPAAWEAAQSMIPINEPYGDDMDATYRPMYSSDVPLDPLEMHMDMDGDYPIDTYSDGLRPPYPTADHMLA
UniProt P21675, whole entry: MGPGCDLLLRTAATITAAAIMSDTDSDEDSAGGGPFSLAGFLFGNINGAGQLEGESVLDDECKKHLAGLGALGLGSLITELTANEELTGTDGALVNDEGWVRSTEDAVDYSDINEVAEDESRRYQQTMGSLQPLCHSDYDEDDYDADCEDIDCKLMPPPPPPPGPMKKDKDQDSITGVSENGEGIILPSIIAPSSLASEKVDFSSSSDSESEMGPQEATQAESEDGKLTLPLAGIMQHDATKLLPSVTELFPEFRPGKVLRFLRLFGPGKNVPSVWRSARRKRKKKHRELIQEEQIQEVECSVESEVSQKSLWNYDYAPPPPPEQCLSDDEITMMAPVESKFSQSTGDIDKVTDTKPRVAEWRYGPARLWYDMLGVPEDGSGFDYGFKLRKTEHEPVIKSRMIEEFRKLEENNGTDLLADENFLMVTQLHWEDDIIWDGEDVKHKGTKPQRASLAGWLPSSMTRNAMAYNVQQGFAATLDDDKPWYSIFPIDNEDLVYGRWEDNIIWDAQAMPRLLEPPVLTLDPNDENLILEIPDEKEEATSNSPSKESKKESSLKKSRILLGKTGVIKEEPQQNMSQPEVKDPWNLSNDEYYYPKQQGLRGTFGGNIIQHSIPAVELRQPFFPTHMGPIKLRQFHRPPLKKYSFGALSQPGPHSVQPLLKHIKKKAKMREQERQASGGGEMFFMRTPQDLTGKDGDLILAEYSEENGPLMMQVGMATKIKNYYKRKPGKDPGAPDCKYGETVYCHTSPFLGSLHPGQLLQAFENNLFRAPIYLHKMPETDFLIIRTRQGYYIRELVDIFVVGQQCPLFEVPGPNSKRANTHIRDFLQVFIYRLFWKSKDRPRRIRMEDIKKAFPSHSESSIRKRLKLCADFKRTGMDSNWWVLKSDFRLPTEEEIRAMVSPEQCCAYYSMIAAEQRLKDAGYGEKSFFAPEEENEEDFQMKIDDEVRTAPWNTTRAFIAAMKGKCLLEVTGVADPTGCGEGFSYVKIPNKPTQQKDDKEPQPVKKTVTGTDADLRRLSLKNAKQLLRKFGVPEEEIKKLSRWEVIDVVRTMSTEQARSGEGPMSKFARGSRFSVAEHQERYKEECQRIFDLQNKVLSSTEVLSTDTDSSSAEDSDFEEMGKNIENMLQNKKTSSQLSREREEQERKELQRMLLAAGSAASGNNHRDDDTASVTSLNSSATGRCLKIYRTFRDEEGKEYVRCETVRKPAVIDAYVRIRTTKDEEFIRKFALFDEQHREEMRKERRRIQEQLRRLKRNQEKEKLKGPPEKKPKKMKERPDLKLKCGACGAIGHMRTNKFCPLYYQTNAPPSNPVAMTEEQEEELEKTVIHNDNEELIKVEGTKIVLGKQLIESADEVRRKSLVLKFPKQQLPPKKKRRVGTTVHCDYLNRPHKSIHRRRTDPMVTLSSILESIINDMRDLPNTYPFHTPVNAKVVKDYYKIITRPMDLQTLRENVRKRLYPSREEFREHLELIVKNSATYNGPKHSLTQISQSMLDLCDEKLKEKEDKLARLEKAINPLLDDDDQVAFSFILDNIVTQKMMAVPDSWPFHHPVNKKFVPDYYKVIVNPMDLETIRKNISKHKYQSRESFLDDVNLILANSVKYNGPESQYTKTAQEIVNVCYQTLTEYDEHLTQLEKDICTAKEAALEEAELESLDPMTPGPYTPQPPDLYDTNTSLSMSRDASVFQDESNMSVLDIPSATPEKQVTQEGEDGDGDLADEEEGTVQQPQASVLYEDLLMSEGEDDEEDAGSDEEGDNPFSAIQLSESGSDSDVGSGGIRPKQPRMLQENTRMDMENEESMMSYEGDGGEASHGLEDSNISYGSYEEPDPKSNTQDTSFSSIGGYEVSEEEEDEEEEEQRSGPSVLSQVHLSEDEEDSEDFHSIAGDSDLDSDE
UniProt P15586: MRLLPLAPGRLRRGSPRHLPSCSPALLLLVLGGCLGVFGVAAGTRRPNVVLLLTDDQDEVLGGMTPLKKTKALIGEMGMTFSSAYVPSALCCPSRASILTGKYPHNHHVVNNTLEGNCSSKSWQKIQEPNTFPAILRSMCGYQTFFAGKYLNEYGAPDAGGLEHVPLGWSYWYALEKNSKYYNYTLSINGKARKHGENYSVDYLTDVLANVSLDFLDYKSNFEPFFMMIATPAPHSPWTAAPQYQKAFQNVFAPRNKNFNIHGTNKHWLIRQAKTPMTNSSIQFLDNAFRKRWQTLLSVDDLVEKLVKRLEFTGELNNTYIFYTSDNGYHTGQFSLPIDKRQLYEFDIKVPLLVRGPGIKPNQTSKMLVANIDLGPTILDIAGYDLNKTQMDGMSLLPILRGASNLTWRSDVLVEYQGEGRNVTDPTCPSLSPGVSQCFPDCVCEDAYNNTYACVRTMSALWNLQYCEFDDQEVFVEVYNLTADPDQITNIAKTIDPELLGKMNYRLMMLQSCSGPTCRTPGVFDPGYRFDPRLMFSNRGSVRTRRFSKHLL
UniProt P15923: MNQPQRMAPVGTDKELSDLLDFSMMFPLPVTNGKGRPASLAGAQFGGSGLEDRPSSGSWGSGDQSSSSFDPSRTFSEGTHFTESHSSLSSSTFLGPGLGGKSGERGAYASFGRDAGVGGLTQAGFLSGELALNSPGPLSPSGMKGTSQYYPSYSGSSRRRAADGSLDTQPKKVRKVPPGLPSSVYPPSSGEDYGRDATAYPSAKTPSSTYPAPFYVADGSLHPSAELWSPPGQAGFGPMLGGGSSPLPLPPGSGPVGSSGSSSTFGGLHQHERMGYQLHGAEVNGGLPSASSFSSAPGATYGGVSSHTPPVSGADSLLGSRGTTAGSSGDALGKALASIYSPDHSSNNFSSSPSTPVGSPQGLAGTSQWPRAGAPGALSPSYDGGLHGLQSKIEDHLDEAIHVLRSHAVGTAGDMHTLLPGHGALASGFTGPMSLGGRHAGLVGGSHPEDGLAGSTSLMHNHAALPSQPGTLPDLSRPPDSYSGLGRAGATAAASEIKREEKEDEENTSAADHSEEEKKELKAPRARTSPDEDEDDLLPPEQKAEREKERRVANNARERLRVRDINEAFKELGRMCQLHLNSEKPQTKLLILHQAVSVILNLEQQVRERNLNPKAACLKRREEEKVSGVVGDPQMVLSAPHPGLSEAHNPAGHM
UniProt P28070, whole entry: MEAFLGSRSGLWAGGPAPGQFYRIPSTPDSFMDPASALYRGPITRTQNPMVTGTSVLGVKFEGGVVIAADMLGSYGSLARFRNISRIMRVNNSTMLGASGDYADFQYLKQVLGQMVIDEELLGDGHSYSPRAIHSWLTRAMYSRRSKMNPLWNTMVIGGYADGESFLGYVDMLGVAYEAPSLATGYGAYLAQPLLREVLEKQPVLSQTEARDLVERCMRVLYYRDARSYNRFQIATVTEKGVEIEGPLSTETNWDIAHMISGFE
UniProt P14314: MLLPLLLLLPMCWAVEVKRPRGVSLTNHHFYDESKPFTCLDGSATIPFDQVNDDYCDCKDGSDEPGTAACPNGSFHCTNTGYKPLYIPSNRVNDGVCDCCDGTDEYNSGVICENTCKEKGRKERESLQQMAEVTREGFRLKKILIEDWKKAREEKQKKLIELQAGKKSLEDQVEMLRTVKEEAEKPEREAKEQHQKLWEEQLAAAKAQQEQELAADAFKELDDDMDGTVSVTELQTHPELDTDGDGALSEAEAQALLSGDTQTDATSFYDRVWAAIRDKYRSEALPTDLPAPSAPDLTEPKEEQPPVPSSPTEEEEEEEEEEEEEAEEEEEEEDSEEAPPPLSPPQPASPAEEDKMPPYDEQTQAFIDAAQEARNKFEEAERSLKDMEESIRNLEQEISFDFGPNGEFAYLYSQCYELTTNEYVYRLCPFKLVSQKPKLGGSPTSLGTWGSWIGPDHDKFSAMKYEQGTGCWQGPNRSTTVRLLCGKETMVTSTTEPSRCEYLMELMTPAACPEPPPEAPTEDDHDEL
UniProt P15735: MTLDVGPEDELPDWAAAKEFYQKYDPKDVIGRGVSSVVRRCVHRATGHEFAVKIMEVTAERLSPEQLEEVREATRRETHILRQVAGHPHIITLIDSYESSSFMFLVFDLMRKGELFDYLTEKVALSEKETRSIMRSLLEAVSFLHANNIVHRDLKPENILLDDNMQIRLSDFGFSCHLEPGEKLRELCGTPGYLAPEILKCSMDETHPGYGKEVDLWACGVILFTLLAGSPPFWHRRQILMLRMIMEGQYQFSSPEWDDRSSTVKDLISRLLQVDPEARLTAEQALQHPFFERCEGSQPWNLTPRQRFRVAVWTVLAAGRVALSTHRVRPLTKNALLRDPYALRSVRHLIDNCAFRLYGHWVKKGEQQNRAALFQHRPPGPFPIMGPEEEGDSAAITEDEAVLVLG
UniProt P26368, whole entry: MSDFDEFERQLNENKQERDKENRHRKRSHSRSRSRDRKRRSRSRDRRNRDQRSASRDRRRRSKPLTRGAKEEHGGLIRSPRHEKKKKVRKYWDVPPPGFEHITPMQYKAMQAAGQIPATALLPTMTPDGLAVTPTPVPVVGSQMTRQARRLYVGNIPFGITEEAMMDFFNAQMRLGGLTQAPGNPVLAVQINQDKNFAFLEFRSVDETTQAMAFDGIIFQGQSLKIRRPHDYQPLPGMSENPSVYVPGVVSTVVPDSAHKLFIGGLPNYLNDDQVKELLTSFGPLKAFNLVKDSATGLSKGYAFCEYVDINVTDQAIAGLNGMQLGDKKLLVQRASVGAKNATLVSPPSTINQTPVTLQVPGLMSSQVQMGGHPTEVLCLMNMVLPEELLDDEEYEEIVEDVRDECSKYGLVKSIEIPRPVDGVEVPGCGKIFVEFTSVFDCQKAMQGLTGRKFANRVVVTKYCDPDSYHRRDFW
UniProt P27694, whole entry: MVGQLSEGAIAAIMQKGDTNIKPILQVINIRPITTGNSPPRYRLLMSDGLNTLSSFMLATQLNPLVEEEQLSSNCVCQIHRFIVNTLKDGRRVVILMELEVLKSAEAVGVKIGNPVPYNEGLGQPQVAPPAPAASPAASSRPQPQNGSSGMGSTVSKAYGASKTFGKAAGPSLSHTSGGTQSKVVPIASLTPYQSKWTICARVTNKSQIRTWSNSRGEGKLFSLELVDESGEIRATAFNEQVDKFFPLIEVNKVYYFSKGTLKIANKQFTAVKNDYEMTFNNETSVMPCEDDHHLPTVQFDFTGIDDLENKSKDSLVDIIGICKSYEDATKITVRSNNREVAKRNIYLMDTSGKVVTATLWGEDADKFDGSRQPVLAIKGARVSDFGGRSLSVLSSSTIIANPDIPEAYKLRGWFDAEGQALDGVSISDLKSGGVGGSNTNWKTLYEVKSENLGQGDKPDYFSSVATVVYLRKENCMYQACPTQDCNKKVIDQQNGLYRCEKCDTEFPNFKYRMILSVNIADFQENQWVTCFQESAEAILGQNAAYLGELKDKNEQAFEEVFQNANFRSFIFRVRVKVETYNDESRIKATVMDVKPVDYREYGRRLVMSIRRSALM
UniProt P16219: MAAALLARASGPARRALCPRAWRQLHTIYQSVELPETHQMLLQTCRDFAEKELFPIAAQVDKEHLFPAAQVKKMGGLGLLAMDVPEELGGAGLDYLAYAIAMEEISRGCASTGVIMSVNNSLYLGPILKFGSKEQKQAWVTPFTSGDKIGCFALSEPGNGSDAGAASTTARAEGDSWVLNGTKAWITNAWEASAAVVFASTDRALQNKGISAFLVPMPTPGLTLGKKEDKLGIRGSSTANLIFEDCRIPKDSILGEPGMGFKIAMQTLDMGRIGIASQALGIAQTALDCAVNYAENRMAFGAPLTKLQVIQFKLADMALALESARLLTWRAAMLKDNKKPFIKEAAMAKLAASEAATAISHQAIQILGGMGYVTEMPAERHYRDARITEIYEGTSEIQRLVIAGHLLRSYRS

Compound in the experiment: CN[C@@H]1C[C@H]2O[C@@](C)([C@@H]1OC)n1c3ccccc3c3c4c(c5c6ccccc6n2c5c31)C(=O)NC4 [staurosporine]
In words: log2 fold change of tryptic peptide abundance, ligand vs vehicle (limited proteolysis) (log2 ratio); higher = more trypsin-susceptible (destabilized). As to conditions: ligand concentration: 20 uM; sample: K562 cleared lysate; digestion: 4 min, 22 C (HT-PELSA RT4min, Orbitrap Astral).
Take “JUP (peptide sequence: ISEDKNPDYR, peptide start residue: 652) (UniProt P14923)”: the log2 fold change amounted to 0.592. As for “UniProt P17812 (peptide sequence: IQAIAWAR, peptide start residue: 382)”, the figure is -0.174; as for “TAF1 (peptide sequence: TAPWNTTR, peptide start residue: 929) (UniProt P21675)”, 0.196; as for “GNS (peptide sequence: TPGVFDPGYR, peptide start residue: 520) (UniProt P15586)”, -0.513. Turning to “TCF3 (peptide sequence: DINEAFKELGR, peptide start residue: 592) (UniProt P15923)”, the log2 fold change is -0.288. “PSMB4 (peptide sequence: MEAFLGSR, peptide start residue: 1) (UniProt P28070)”: the log2 fold change is -0.149. Regarding “PRKCSH (peptide sequence: DMEESIR, peptide start residue: 386) (UniProt P14314)”, the log2 fold change was -0.129. For “PHKG2 (peptide sequence: LYGHWVK, peptide start residue: 357) (UniProt P15735)”, the log2 fold change turned out to be 0.305.

Regarding “U2AF2 (peptide sequence: SIEIPRPVDGVEVPGCGK, peptide start residue: 414) (UniProt P26368)”, the log2 fold change worked out at 0.386. For the target “RPA1 (peptide sequence: AAGPSLSHTSGGTQSK, peptide start residue: 168) (UniProt P27694)”, the log2 fold change turned out to be 0.493. As for “ACADS (peptide sequence: AEGDSWVLNGTK, peptide start residue: 172) (UniProt P16219)”, the figure is -0.242.

Values taken from the supplement of paper PMC12819154, “High-throughput peptide-centric local stability assay extends protein–ligand identification to membrane proteins, tissues and bacteria” (Nature Structural & Molecular Biology, 2025).
